Measured values: US20200246381A1 (NANJING IASO BIOTHERAPEUTICS, published 2020)

T1: biotinylated BCMA protein (human, UniProt Q02223 1-54, biotinylated (site not stated))
T1 construct: Soluble labelled reagent, titrated from 295.86 nM to 3.79 pM and detected with PE streptavidin
T1 sequence (looked up): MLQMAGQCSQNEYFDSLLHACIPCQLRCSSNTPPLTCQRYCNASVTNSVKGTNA

B1: CAR0009 (other)
chain: DIVLTQSPPSLAMSLGKRATISCRASESVTILGSHLIHWYQQKPGQPPTLLIQLASNVQTGVPARFSGSGSRTDFTLTIDPVEEDDVAVYYCLQSRTIPRTFGGGTKLEIKGSTSGSGKPGSGEGSTKGQIQLVQSGPELKKPGETVKISCKASGYTFTDYSINWVKRAPGKGLKWMGWINTETREPAYAYDFRGRFAFSLETSASTAYLQINNLKYEDTATYFCALDYSYAMDYWGQGTSVTVSSFVPVFLPAKPTTTPAPRPPTPAPTIASQPLSLRPEACRPAAGGAVHTRGLDFACDIYIWAPLAGTCGVLLLSLVITLYCNHRNRSKRSRLLHSDYMNMTPRRPGPTRKHYQPYAPPRDFAAYRSRVKFSRSADAPAYQQGQNQLYNELNLGRREEYDVLDKRRGRDPEMGGKPRRKNPQEGLYNELQKDKMAEAYSEIGMKGERRRGKGHDGLYQGLSTATKDTYDALHMQALPPR
notes: Control chimeric antigen receptor on the surface of 293T or T cells; no HA-tag and no GFP; also called PXLV0009; PXL0009
B2: CAR0041 (other)
chain: YPYDVPDYADIVLTQSPPSLAMSLGKRATISCRASESVTILGSHLIHWYQQKPGQPPTLLIQLASNVQTGVPARFSGSGSRTDFTLTIDPVEEDDVAVYYCLQSRTIPRTFGGGTKLEIKGSTSGSGKPGSGEGSTKGQIQLVQSGPELKKPGETVKISCKASGYTFTDYSINWVKRAPGKGLKWMGWINTETREPAYAYDFRGRFAFSLETSASTAYLQINNLKYEDTATYFCALDYSYAMDYWGQGTSVTVSSFVPVFLPAKPTTTPAPRPPTPAPTIASQPLSLRPEACRPAAGGAVHTRGLDFACDIYIWAPLAGTCGVLLLSLVITLYCNHRNRSKRSRLLHSDYMNMTPRRPGPTRKHYQPYAPPRDFAAYRSRVKFSRSADAPAYQQGQNQLYNELNLGRREEYDVLDKRRGRDPEMGGKPRRKNPQEGLYNELQKDKMAEAYSEIGMKGERRRGKGHDGLYQGLSTATKDTYDALHMQALPPR
notes: Control chimeric antigen receptor on the surface of 293T or T cells, co-expressed with GFP through a T2A cleaving peptide; The CD8a signal peptide is left out; T2A residues that stay at the C-terminus after cleaving are not included; also called PXL0041; PXL0041-293T

Molecular target: T1, biotinylated BCMA protein
Assay: flow cytometry on transiently transfected 293T cells carrying the CAR; biotinylated BCMA titrated 295.86 nM to 3.79 pM, PE streptavidin, curve fitting
Description: The expressions of the CAR molecules were evaluated by utilizing the methods in example 1. Specifically, the dose of the biotinylated BCMA was changed by the gradient dilution for protein concentration in the presence of excessive PE streptavidin with a fixed concentration, so that the change of PE signals as shown in FIG. 2B was obtained. X axis represented GFP protein signals expressed in the cells, and Y axis represented PE signals obtained by the CAR molecules marked using the gradiently-diluted biotinylated BCMA and the fixed amount of PE streptavidin.
The gradiently-diluted biotinylated BCMA protein (295.86 nM to 3.79 pM) was used to assay the 293T cells transiently transfected with the candidate CAR plasmids, so that a PE signal change curve (as shown in FIG. 3) was obtained. EC₅₀ values for the binding of BCMA proteins with CAR molecules on the surfaces of cells as measured by curve fitting, were as shown in Table 2.

| Binder | EC50 |
| --- | --- |
| B1 | 1.59 nM |
| B2 | 0.3 nM |
